{"sequences": {"note": "The chains behind the UniProt entries cited, without tags or fusion partners.", "UniProt Q61937": "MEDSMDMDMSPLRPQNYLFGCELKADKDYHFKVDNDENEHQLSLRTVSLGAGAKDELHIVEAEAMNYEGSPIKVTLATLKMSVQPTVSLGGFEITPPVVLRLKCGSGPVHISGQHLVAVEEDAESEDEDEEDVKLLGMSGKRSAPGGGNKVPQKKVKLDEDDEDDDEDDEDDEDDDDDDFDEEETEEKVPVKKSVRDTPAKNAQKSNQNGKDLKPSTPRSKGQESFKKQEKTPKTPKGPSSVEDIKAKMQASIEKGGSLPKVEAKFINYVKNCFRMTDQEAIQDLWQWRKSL", "UniProt Q04207": "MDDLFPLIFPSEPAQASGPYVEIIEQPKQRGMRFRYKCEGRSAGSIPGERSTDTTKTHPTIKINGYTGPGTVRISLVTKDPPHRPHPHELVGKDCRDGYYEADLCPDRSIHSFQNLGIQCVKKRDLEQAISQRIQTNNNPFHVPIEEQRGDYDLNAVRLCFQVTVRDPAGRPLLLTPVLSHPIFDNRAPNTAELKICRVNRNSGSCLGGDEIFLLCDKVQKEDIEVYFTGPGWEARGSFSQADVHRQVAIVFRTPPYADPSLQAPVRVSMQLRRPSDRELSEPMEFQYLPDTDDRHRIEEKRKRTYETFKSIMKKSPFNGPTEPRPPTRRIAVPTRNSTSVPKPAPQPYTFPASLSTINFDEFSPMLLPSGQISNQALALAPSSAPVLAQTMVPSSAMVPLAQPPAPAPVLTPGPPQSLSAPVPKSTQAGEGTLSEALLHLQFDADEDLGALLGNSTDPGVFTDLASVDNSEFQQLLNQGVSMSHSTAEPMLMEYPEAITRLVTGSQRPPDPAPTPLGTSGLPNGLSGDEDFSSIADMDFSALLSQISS"}, "source": "paper PMC11362010", "molecular_target": "Nucleophosmin 1 (mouse (endogenous in MNK3)) (UniProt Q61937)", "assay": "co-IP; lysate of stimulated MNK3 cells (IL-1β and IL-23); IP lysis buffer 20 mmol/l Tris pH 7.5, 150 mmol/l NaCl, 1% Triton X-100; antibody overnight at 4 °C, protein A/G magnetic beads, washed with PBS; immunoblot", "note": "These are yes or no findings as the source states them, for the method shown. In cells and extracts the contact can be indirect. Some results given as binding are weak or reduced against the parent protein; the word gives no strength.", "data": [{"substance": "p65, a component of the nuclear factor kappa B (NF-κB) transcription factor (from UniProt Q04207 1-549)", "values": [{"measurement": "binding", "value": "binds"}]}]}
